Results: paper PMC5364462
No constants are given. Whether binding was seen depends on the method and setting. Some entries that bind do so weakly or less than the wild type.

By UniProt entry, the sequences of proteins in these tests, tags left out. Where a name states a change or a piece, a line headed by the entry shows the natural chain unless it says otherwise. Residues count along the entry.
UniProt P29317, residues 24-903: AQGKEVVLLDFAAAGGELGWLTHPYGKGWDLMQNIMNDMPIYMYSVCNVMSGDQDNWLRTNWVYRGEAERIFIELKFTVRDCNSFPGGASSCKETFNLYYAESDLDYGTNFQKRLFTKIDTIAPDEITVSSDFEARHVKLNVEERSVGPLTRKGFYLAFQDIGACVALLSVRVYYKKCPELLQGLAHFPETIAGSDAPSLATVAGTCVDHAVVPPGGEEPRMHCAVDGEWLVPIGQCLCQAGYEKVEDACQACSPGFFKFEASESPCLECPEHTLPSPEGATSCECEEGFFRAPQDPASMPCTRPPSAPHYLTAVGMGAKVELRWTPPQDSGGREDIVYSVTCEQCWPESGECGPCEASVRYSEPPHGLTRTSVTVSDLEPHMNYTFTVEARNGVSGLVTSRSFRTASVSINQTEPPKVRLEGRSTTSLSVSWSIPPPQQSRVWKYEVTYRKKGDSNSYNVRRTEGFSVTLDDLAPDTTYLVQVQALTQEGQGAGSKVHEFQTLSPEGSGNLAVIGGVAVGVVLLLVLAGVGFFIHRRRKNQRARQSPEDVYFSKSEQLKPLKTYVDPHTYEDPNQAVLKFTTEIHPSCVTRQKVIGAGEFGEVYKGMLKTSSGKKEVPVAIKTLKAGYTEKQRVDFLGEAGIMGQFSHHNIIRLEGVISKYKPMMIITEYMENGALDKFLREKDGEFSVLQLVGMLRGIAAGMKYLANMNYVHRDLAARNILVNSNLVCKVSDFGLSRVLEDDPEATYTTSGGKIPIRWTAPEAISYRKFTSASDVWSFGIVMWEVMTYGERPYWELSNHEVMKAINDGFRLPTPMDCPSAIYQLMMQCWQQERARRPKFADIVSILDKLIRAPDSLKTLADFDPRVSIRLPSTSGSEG

Target: EphA2ΔS-GFP (human) (UniProt P29317)
Assay: fluorescence correlation spectroscopy (FCS); live 728 cells stably expressing the GFP-tagged construct, incubated in 1 μg/mL EA1-Fc/Opti-MEM for 20 min before FCS; 37 °C; median of single-cell molecular brightness

EphA2ΔS-GFP (from UniProt P29317 24-903) (receptor)
binding: binds
